Experimental data from patent US20250381273A1, “Augmenting Mitochondria in Immune Cells for Improved Cancer Immunotherapy” (LEIBNIZ-INSTITUT FÜR IMMUNTHERAPIE (LIT), priority 2022, published 2025).
At least one structure is not confirmed: it was looked up by name or label, or the drawing left a doubt.

System: BMSCs
Assay: Generation of BMSC lines with dysfunctional donor mitochondria
Format: cell-based
Conditions: low-dose EtBr pre-treatment

CC[n+]1c(-c2ccccc2)c2cc(N)ccc2c2ccc(N)cc21 [EtBr, Ethidium Bromide]
capacity of treated BMSCs to transfer DsRed-labeled mitochondria to recipient CD8+ T cells: maintained
mitochondrial membrane potential of treated BMSCs (data not shown): lower
mitochondrial respiration of treated BMSCs (data not shown): severely impaired
mtDNA of treated BMSCs (data not shown): decreased
